# Data as given in PubChem BioAssay AID504648 (National Center for Advancing Translational Sciences (NCATS), 2011).
# The whole screen tested about 390,000 compounds, of which about 610 (0.16%) were called active. Inconclusive results, whose numbers are uncertain, are shown with a selection of clear calls. Calls come from the whole dose curve; as a rule, active = well fitted inhibition curve with a large enough effect; inconclusive = small, poorly fitted or top-dose-only effect, or effect the other way, or another doubt; inactive = no such curve, though single readings can be large or run the other way. Potencies beside an inconclusive call are fits to weak or partial responses and may not hold up.
# Assay: Nrf2 qHTS screen for inhibitors: counterscreen for cytotoxicity
# Conditions: A549 ARE-Fluc cells, CellTiter-Fluor viability, 18-24 h; series mostly up to 46 µM
# Outline: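 Cytotoxicity counterscreen: CellTiter-Fluor fluorescence was measured in A549 ARE_Fluc cells after 18-24 h of compound exposure in a concentration series. The subsequent BugLite luminescent read reports ARE-luciferase activity.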
# Potency is the fitted concentration of half-maximal effect.
row,Structure (SMILES),Potency
1,O=C(Nc1cccc(S(=O)(=O)N2CCCCC2)c1)Nc1ccc(Cl)cc1Cl,"inconclusive: 16.4 µM [falling, single point]"
2,COCCN(CCOC)S(=O)(=O)c1ccc(C(=O)Nc2nnc(C3CC3)o2)cc1,inactive
3,CC(c1ccc(Cl)cc1)n1c(-c2ccc3ccccc3n2)n[nH]c1=S (centres undefined),"inconclusive: 25.9 µM [falling, partial curve, poor fit]"
4,O=C(c1ccc(S(=O)(=O)c2ccccc2Cl)c([N+](=O)[O-])c1)N1CCN(Cc2ccccc2)CC1,"inconclusive: 29.1 µM [falling, single point]"
5,CC(C)CSc1oc(-c2ccco2)nc1S(=O)(=O)c1ccccc1,"inconclusive: 25.9 µM [activator, partial curve, poor fit]"
6,Cc1ccc(NCc2nnc(SCC#N)o2)c(C)c1,"inconclusive: 13 µM [activator, partial curve, poor fit]"
7,CC1CCc2c(sc3nc(C(C)(C)C)nc(N4CCN(C(=O)CCl)CC4)c23)C1 (centres undefined),inactive
8,O=C(Nc1nc2ccc(F)cc2s1)c1nc(S(=O)(=O)Cc2ccccc2)ncc1Cl,"inconclusive: 18.4 µM [falling, single point]"
9,N#C/C(=C\c1cn(-c2ccccc2)nc1-c1cccnc1)c1nnc2n1CCCCC2,"inconclusive: 29.1 µM [falling, single point]"
10,CCOC(=O)c1ccc(NC(=O)c2ccc3c(c2)NC(=O)c2ccccc2S3)cc1,inactive
11,COC(=O)C(CCSC)NC(=O)c1c(C)oc2ncn(CC(C)C)c(=O)c12 (centres undefined),inactive
12,Cc1ccc2[nH]c(=O)c(C(c3nnnn3CC3CCCO3)N3CCc4ccccc4C3)cc2c1 (centres undefined),inactive
13,Cc1ccc(N2C(=O)c3[nH]nc(-c4ccc(Cl)cc4)c3C2c2ccc(F)cc2)cc1 (centres undefined),"inconclusive: 29.1 µM [falling, single point]"
14,c1ccc(Cn2c(NCc3ccco3)nc3ccccc32)cc1,"inconclusive: 4.11 µM [activator, partial curve, poor fit]"
15,COc1cccc(C(=O)Nc2ccc3c(cc2=O)[C@@H](NC(C)=O)CCc2cc(OC)c(OC)c(OC)c2-3)c1,"inconclusive: 11.6 µM [falling, partial curve]"
16,COc1ccc(/C=C2/SC(=S)N(c3ccc(S(=O)(=O)Nc4nccs4)cc3)C2=O)cc1,"inconclusive: 23.1 µM [falling, partial curve]"
17,CCOc1ccc(NC(=O)Cn2ccn(-c3ccc(F)c(F)c3)c(=O)c2=O)cc1,"inconclusive: 20.6 µM [falling, partial curve, poor fit]"
18,CC(c1cccs1)N(Cc1ccco1)C(=O)Nc1ccc(Cl)c(Cl)c1 (centres undefined),"inconclusive: 32.6 µM [falling, single point]"
19,Cc1cccn2c(=O)c3cc(S(=O)(=O)c4ccccc4)c(=N)n(Cc4cccnc4)c3nc12,"inconclusive: 25.9 µM [falling, partial curve, poor fit]"
20,Cc1ccc(N(C(=O)c2snc(C(N)=O)c2N)C(C(=O)NCCC(C)C)c2ccco2)cc1 (centres undefined),"inconclusive: 29.1 µM [falling, single point]"

# Three compounds drawn at random from those above, as already listed:
row,Structure (SMILES),Potency
20,Cc1ccc(N(C(=O)c2snc(C(N)=O)c2N)C(C(=O)NCCC(C)C)c2ccco2)cc1 (centres undefined),"inconclusive: 29.1 µM [falling, single point]"
11,COC(=O)C(CCSC)NC(=O)c1c(C)oc2ncn(CC(C)C)c(=O)c12 (centres undefined),inactive
16,COc1ccc(/C=C2/SC(=S)N(c3ccc(S(=O)(=O)Nc4nccs4)cc3)C2=O)cc1,"inconclusive: 23.1 µM [falling, partial curve]"

# Following part

row,Structure (SMILES),Potency
1,CC(=O)N1CCc2cc(S(=O)(=O)Nc3ccc(C)cc3)ccc21,inactive
2,COc1ccccc1NC(=O)CN1C(=O)C2(SCC(=O)N2c2ccc(C)c(C)c2)c2ccccc21 (centres undefined),"inconclusive: 9.2 µM [falling, partial curve]"
3,CC(C)OC(=O)CSc1nc(N2CCOCC2)c2c(c1C#N)CC(C)(C)OC2,inactive
4,CC(C)OCCCNC(=O)c1ccc(-n2c(-c3ccccc3)cc3c2CCCC3)cc1,"inconclusive: 29.1 µM [falling, partial curve, poor fit]"
5,O=C(Nc1ccc(OC(F)F)c(Cl)c1)c1cccc(OC(F)F)c1,"inconclusive: 29.1 µM [falling, single point]"
6,CC(NCc1ccc(OCc2ccc(Cl)cc2)cc1)C(O)c1ccccc1 (centres undefined),"inconclusive: 18.4 µM [falling, single point]"
7,CCOc1ccc(N2C(=O)C3=C(C(c4ccc(Cl)cc4)=NCCN3)C2c2cccnc2)cc1 (centres undefined),"inconclusive: 25.9 µM [falling, single point]"
8,CC1CC(Nc2ccccc2)c2ccccc2N1C(=O)c1ccncc1 (centres undefined),"inconclusive: 14.6 µM [activator, single point]"
9,Cc1ccc(CNC(=O)C(=O)NCC2OCCN2S(=O)(=O)c2ccc(C)cc2)cc1 (centres undefined),inactive
10,Cc1c(N2C(=O)/C(=C/c3ccc(N(C)C)cc3)N(C)C2=S)c(=O)n(-c2ccccc2)n1C,active: 23.1 µM
11,COC(CNC(=O)c1ccc(N2CCc3ccccc32)c([N+](=O)[O-])c1)OC,"inconclusive: 20.6 µM [falling, partial curve]"
12,CCc1ccc(NC(=O)CSc2nc3n[nH]c(C)c3c(=N)n2-c2ccccc2C)cc1,"inconclusive: 18.4 µM [falling, single point]"
13,O=C(O)c1cc([N+](=O)[O-])cc2c1nnn2O,"inconclusive: 20.6 µM [falling, single point]"
14,COc1ccc(/C=N/NC(=O)c2cc(C(C)(C)C)[nH]n2)cc1COc1ccc(F)cc1F,"inconclusive: 32.6 µM [falling, partial curve, poor fit]"
15,Cc1ccc(NC(=O)CSc2nccn(-c3ccc4c(c3)OCCO4)c2=O)cc1,"inconclusive: 23.1 µM [falling, partial curve, poor fit]"
16,CCOc1nc(-c2ccccc2)ccc1-c1noc(COC)n1,"inconclusive: 29.1 µM [falling, partial curve, poor fit]"
17,Cc1cccc(NC(=O)CSc2nc3ccc(NC(=O)c4ccco4)cc3s2)c1,"inconclusive: 32.6 µM [falling, partial curve, poor fit]"
18,O=C(Cc1cccs1)N1CCN(S(=O)(=O)c2ccc(Cl)c(C(F)(F)F)c2)CC1,"inconclusive: 10.3 µM [activator, partial curve, poor fit]"
19,Cc1ccc(-c2nc3cc(C(C)C)ccc3o2)cc1NC(=O)c1cccs1,inactive
